Sequences and labels used below:
B1: LIN7C (protein, UniProt Q9NUP9 1-197)
chain: MAALGEPVRLERDICRAIELLEKLQRSGEVPPQKLQALQRVLQSEFCNAVREVYEHVYETVDISSSPEVRANATAKATVAAFAASEGHSHPRVVELPKTEEGLGFNIMGGKEQNSPIYISRIIPGGIADRHGGLKRGDQLLSVNGVSVEGEHHEKAVELLKAAQGKVKLVVRYTPKVLEEMESRFEKMRSAKRRQQT
B2: MPP7 (protein, UniProt Q5T2T1 1-576)
chain: MPALSTGSGSDTGLYELLAALPAQLQPHVDSQEDLTFLWDMFGEKSLHSLVKIHEKLHYYEKQSPVPILHGAAALADDLAEELQNKPLNSEIRELLKLLSKPNVKALLSVHDTVAQKNYDPVLPPMPEDIDDEEDSVKIIRLVKNREPLGATIKKDEQTGAIIVARIMRGGAADRSGLIHVGDELREVNGIPVEDKRPEEIIQILAQSQGAITFKIIPGSKEETPSKEGKMFIKALFDYNPNEDKAIPCKEAGLSFKKGDILQIMSQDDATWWQAKHEADANPRAGLIPSKHFQERRLALRRPEILVQPLKVSNRKSSGFRKSFRLSRKDKKTNKSMYECKKSDQYDTADVPTYEEVTPYRRQTNEKYRLVVLVGPVGVGLNELKRKLLISDTQHYGVTVPHTTRARRSQESDGVEYIFISKHLFETDVQNNKFIEYGEYKNNYYGTSIDSVRSVLAKNKVCLLDVQPHTVKHLRTLEFKPYVIFIKPPSIERLRETRKNAKIISSRDDQGAAKPFTEEDFQEMIKSAQIMESQYGHLFDKIIINDDLTVAFNELKTTFDKLETETHWVPVSWLHS

Sequences of proteins named here, by UniProt entry; tags and fusion partners are left off.
UniProt Q9ULH0: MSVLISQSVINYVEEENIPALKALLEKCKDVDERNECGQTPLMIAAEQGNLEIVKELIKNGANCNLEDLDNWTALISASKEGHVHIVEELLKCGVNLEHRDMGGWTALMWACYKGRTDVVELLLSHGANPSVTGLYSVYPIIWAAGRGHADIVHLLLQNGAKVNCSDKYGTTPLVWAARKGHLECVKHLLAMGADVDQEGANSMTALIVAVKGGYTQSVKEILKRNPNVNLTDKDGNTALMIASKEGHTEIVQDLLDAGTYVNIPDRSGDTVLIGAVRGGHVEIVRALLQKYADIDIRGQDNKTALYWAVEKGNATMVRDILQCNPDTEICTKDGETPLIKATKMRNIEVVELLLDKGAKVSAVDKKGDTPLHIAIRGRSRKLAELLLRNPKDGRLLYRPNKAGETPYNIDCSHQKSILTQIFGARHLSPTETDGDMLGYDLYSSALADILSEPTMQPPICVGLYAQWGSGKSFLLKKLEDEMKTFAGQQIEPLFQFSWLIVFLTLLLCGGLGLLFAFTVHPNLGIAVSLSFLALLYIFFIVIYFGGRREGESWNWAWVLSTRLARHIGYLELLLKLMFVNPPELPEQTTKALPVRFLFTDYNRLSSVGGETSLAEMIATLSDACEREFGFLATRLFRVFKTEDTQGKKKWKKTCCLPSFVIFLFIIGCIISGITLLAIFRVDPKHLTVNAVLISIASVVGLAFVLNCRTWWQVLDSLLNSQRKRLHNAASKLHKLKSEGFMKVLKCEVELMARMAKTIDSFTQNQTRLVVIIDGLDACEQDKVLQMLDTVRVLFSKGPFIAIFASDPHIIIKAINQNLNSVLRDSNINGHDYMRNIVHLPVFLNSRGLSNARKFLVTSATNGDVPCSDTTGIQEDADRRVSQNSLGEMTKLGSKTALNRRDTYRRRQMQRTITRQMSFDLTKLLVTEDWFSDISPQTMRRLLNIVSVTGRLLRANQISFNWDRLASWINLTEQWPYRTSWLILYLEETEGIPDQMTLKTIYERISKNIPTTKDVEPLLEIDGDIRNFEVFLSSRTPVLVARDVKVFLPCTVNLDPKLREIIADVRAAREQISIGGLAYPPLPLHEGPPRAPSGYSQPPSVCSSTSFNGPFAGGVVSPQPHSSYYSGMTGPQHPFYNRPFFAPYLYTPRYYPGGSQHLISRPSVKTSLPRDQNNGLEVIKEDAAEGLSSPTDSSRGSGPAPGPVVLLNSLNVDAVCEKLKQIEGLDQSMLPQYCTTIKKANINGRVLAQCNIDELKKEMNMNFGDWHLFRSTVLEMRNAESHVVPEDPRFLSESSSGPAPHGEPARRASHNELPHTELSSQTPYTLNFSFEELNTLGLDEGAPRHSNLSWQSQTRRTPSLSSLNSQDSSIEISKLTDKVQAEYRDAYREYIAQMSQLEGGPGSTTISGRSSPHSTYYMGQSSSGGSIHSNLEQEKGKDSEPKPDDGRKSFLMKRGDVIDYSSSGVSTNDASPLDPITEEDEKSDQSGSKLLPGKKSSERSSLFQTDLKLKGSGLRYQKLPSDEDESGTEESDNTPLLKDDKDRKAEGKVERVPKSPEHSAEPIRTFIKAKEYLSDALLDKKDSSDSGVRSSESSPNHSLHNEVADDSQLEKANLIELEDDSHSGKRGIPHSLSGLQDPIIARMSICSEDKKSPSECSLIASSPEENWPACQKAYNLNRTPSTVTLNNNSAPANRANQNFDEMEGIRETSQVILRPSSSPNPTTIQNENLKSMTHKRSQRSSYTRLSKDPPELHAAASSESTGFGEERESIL
UniProt P46939: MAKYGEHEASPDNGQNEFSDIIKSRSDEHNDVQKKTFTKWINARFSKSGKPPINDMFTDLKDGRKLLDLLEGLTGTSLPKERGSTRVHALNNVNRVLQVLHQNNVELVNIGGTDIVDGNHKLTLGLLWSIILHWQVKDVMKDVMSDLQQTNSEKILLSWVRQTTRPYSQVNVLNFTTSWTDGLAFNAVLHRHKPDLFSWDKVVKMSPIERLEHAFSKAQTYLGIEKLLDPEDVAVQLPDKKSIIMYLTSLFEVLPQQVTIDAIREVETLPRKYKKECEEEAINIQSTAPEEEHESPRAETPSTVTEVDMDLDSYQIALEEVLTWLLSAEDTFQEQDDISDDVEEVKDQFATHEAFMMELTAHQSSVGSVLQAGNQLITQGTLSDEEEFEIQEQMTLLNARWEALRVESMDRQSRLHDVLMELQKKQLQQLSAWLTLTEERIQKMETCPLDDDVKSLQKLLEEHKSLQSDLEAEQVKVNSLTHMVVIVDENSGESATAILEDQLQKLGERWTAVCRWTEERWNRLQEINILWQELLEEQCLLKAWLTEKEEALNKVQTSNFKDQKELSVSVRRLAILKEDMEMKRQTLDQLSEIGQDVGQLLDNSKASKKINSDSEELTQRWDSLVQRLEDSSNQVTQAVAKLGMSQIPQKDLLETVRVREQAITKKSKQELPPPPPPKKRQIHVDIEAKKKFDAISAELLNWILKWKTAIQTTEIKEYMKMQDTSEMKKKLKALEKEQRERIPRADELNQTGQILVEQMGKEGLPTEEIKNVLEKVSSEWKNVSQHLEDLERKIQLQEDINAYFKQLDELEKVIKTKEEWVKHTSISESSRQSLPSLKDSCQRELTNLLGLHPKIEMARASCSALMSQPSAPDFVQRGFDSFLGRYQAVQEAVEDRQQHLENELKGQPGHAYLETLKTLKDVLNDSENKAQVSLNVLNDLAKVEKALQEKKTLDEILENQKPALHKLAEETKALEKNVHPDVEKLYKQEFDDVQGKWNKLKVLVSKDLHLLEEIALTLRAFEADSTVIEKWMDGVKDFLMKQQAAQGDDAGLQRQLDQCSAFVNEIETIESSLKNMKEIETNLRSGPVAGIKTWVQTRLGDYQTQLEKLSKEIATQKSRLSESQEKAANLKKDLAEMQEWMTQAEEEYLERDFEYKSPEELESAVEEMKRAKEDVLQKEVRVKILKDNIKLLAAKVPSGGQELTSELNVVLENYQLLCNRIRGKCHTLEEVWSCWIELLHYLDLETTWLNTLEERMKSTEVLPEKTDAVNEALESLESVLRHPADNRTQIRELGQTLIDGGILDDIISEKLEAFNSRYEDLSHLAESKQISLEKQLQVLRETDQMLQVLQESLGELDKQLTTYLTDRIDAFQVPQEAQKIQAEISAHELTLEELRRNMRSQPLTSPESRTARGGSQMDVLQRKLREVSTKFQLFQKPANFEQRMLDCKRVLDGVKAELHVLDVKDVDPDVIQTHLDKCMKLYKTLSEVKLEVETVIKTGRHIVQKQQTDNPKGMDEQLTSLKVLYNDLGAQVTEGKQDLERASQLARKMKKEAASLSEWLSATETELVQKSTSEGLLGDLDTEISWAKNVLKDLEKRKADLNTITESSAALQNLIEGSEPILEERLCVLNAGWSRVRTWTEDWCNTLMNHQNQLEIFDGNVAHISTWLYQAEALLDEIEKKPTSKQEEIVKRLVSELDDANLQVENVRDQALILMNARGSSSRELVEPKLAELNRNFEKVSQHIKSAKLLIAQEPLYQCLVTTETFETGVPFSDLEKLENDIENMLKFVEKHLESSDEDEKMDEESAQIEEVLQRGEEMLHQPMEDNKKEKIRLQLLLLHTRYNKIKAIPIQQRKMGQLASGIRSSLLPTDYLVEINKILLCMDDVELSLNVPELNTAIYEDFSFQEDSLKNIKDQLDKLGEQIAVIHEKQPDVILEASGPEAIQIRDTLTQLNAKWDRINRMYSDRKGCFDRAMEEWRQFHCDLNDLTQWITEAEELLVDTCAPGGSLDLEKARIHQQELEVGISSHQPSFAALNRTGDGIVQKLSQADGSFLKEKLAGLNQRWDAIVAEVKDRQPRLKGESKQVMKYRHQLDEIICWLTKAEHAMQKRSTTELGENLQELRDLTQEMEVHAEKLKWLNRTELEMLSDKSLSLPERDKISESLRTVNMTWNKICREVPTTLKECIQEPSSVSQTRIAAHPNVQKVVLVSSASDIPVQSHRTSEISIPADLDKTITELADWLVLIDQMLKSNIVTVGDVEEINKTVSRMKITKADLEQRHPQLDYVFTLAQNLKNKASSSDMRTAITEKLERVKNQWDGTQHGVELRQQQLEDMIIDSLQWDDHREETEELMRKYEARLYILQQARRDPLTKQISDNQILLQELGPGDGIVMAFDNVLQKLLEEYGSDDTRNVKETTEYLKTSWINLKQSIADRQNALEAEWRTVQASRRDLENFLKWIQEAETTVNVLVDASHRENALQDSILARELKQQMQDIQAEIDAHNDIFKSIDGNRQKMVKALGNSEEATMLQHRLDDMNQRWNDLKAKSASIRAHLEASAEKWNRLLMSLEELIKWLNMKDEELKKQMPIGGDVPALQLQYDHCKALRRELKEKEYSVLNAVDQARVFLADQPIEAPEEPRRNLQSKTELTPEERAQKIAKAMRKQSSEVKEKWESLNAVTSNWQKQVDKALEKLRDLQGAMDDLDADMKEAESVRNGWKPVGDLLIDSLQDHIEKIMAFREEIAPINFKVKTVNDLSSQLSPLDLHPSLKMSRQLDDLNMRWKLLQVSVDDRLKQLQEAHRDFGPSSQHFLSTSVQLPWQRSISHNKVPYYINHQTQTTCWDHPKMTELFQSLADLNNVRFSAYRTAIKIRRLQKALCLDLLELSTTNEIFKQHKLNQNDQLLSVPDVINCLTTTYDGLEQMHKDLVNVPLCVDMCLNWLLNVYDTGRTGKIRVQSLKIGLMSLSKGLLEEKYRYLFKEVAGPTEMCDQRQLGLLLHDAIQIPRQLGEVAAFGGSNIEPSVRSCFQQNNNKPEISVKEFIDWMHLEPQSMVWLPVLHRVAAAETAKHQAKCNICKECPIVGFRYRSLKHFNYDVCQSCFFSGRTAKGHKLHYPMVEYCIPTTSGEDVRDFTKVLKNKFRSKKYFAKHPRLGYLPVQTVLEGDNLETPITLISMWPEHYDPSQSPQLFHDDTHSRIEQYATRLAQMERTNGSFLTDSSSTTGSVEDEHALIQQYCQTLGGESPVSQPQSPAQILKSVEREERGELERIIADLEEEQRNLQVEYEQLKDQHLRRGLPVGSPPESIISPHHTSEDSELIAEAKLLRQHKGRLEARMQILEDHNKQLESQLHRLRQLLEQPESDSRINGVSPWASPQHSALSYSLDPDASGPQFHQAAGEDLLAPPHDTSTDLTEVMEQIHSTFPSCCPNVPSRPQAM

No constants are given. Whether binding was seen depends on the method and setting. Binding seen in cells or lysates may run through a third protein. These calls come from enrichment with a bait or labelling near it, and not all partners need be listed. Sequences can lack the tags named with a protein.

The assay has as its target T1, BirAGFP-KIF13B Tail 2 (UniProt Q9NQT8).
T1 sequence: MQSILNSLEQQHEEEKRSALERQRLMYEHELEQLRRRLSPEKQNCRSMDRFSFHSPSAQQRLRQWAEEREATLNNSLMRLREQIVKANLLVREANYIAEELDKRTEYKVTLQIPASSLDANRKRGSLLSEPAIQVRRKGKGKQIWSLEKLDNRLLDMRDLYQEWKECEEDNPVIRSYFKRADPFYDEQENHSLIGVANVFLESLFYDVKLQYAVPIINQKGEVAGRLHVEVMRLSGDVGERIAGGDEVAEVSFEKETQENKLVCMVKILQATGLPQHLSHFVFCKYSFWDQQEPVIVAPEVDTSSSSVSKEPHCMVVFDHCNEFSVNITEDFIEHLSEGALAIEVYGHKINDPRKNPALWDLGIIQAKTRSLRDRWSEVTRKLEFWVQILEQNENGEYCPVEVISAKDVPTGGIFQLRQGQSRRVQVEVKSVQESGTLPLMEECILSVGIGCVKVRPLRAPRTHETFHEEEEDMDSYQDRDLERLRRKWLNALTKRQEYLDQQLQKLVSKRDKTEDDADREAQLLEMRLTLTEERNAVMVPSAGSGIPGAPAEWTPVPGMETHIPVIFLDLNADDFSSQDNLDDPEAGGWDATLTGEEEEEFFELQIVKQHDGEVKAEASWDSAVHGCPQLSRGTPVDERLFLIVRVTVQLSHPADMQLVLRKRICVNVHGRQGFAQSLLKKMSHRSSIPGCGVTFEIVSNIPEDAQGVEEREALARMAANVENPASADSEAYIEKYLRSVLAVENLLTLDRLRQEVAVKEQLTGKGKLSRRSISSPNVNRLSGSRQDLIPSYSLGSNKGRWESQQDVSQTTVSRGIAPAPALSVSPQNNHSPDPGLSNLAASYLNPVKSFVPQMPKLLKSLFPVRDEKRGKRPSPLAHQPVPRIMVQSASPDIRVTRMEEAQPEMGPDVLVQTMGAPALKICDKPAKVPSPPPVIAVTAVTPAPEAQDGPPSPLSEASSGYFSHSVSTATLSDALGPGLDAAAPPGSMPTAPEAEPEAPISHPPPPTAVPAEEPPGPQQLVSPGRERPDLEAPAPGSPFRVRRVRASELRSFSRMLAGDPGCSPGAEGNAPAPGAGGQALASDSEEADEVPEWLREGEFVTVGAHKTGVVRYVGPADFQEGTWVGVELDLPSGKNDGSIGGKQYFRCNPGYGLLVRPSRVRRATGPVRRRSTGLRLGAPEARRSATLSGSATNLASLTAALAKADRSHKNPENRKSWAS
Put plainly: affinity purification with mass spectrometry.
“angiomotin (AMOT) (from UniProt Q4VCS5-2)”: the binding entry was “binds”.
In the case of “kinase D-interacting substrate of 220 kDa (KIDINS220) (from UniProt Q9ULH0 1-1771)”, the binding entry is given as “binds”.
In the case of “syntrophin (human (endogenous in HEK293))”, the binding result is “binds”.
As for utrophin (from UniProt P46939 1-3433), the binding entry is listed as “binds”.
B1: the binding entry was “binds”.
Then B2, with “binds”.
